Results: doi:10.1101/2022.02.27.481910 (bioRxiv, 2022)
These are yes or no findings as the source states them, for the method shown. A result given as binding can be weak or reduced; the word gives no strength.

Target: T1, KaiC-EE (S431E, T432E) (UniProt Q79PF4)
T1 sequence: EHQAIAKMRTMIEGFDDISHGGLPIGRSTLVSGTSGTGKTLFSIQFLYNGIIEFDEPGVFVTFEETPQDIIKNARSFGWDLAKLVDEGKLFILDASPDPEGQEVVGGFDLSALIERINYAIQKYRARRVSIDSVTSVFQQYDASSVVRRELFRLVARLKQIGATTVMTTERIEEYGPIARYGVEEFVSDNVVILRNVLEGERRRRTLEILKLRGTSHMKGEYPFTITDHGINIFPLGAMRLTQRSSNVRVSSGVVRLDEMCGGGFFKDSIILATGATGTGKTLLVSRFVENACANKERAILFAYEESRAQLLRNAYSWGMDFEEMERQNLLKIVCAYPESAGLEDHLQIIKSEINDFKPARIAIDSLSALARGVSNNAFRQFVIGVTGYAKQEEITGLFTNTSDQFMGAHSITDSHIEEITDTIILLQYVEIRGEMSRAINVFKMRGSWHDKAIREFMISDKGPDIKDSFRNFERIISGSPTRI
Assay: cryo-EM structure

## KaiC-AA (S431A, T432A) (from UniProt Q79PF4) (enzyme)
  binding: binds
